Measured values as given in publication PMC11189303.

Sequences of proteins named here, by UniProt entry; tags and fusion partners are left off.
UniProt Q8TCE6: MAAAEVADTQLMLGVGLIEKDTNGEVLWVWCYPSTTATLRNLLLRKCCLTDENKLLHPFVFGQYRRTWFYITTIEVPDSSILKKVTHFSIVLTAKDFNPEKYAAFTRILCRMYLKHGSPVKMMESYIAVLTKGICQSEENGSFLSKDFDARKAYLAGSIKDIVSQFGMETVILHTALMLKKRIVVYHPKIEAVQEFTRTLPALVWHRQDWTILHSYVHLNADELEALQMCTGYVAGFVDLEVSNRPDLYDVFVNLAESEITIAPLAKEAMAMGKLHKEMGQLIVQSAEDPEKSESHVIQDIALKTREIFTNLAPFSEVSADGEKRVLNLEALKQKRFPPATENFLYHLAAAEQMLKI
UniProt O60826: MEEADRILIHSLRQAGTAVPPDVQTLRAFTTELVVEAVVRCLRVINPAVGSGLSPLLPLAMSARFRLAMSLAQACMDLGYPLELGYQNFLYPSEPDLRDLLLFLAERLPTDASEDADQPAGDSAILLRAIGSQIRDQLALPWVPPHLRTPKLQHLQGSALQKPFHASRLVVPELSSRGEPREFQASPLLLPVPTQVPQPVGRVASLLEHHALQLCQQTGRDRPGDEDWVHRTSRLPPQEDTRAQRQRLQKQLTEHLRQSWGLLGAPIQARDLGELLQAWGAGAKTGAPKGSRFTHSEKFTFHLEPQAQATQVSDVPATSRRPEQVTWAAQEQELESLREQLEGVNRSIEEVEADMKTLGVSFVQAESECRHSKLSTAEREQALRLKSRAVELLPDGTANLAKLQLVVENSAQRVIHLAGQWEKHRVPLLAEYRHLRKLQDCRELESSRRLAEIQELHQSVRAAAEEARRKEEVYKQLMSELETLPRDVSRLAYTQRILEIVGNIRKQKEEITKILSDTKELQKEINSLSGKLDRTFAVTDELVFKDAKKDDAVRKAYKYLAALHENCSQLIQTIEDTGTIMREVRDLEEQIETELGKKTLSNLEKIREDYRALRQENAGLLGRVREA
UniProt Q8N668: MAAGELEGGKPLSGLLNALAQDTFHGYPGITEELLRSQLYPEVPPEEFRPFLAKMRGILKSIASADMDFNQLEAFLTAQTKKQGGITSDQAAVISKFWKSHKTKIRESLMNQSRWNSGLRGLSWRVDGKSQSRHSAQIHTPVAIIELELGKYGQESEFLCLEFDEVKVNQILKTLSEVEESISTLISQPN
UniProt Q9Y6G5: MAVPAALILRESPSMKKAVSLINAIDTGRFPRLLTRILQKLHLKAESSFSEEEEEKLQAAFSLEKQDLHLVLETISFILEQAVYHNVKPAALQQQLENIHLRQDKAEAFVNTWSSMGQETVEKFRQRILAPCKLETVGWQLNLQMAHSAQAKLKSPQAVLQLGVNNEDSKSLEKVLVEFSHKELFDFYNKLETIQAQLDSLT

Experiments:
VPS26C (human) = VPS26C (human) (UniProt O14972); assay: proximity labelling; BioID–MS: MAC-tagged (BirA*) bait in Flp-In T-REx 293, tetracycline and 50 μM biotin 24 h; lysis with 0.1% SDS and benzonase, Strep-Tactin beads; high-confidence interactions by SAINTexpress and CRAPome
VPS35L (human) = VPS35L (human) (UniProt Q7Z3J2); assay: as above
[1] = target: DENN domain-containing protein 10 (human) (UniProt Q8TCE6); assay: as above
CCDC22 (human) [2] = target: CCDC22 (human) (UniProt O60826); assay: as above
COMMD1 (human) = COMMD1 (human) (UniProt Q8N668); assay: as above
COMMD10 (human) = COMMD10 (human) (UniProt Q9Y6G5); assay: as above
CCDC22 (human) [3] = target: CCDC22 (human) (UniProt O60826); assay: affinity purification with mass spectrometry; MAC-tagged bait stably expressed in Flp-In T-REx 293 (tetracycline 24 h); cleared lysate (50 mM HEPES pH 8.0, 150 mM NaCl, 0.5% IGEPAL) on Strep-Tactin beads, eluted with biotin; high-confidence interactions by SAINTexpress (BFDR < 0.05) and CRAPome against MAC-tagged GFP controls

B1: F-actin capping protein CAPZA3 (protein, UniProt Q96KX2 1-299)
chain: MTLSVLSRKDKERVIRRLLLQAPPGEFVNAFDDLCLLIRDEKLMHHQGECAGHQHCQKYSVPLCIDGNPVLLSHHNVMGDYRFFDHQSKLSFKYDLLQNQLKDIQSHGIIQNEAEYLRVVLLCALKLYVNDHYPKGNCNMLRKTVKSKEYLIACIEDHNYETGECWNGLWKSKWIFQVNPFLTQVTGRIFVQAHFFRCVNLHIEISKDLKESLEIVNQAQLALSFARLVEEQENKFQAAVLEELQELSNEALRKILRRDLPVTRTLIDWHRILSDLNLVMYPKLGYVIYSRSVLCNWII
binding (VPS26C (human)): binds

B2: TMED5 (protein, UniProt Q9Y3A6 28-229)
chain: FTPSLDSDFTFTLPAGQKECFYQPMPLKASLEIEYQVLDGAGLDIDFHLASPEGKTLVFEQRKSDGVHTVETEVGDYMFCFDNTFSTISEKVIFFELILDNMGEQAQEQEDWKKYITGTDILDMKLEDILESINSIKSRLSKSGHIQTLLRAFEARDRNIQESNFDRVNFWSMVNLVVMVVVSAIQVYMLKSLFEDKRKSRT
binding (VPS35L (human)): binds

B3: UBL4A (protein, UniProt P11441 1-157)
chain: MQLTVKALQGRECSLQVPEDELVSTLKQLVSEKLNVPVRQQRLLFKGKALADGKRLSDYSIGPNSKLNLVVKPLEKVLLEEGEAQRLADSPPPQVWQLISKVLARHFSAADASRVLEQLQRDYERSLSRLTLDDIERLASRFLHPEVTETMEKGFSK
binding (VPS35L (human)): binds

B4: endosomal transport protein FKBP15 (protein, UniProt Q5T1M5 1-1219)
chain: MFGAGDEDDTDFLSPSGGARLASLFGLDQAAAGHGNEFFQYTAPKQPKKGQGTAATGNQATPKTAPATMSTPTILVATAVHAYRYTNGQYVKQGKFGAAVLGNHTAREYRILLYISQQQPVTVARIHVNFELMVRPNNYSTFYDDQRQNWSIMFESEKAAVEFNKQVCIAKCNSTSSLDAVLSQDLIVADGPAVEVGDSLEVAYTGWLFQNHVLGQVFDSTANKDKLLRLKLGSGKVIKGWEDGMLGMKKGGKRLLIVPPACAVGSEGVIGWTQATDSILVFEVEVRRVKFARDSGSDGHSVSSRDSAAPSPIPGADNLSADPVVSPPTSIPFKSGEPALRTKSNSLSEQLAINTSPDAVKAKLISRMAKMGQPMLPILPPQLDSNDSEIEDVNTLQGGGQPVVTPSVQPSLHPAHPALPQMTSQAPQPSVTGLQAPSAALMQVSSLDSHSAVSGNAQSFQPYAGMQAYAYPQASAVTSQLQPVRPLYPAPLSQPPHFQGSGDMASFLMTEARQHNTEIRMAVSKVADKMDHLMTKVEELQKHSAGNSMLIPSMSVTMETSMIMSNIQRIIQENERLKQEILEKSNRIEEQNDKISELIERNQRYVEQSNLMMEKRNNSLQTATENTQARVLHAEQEKAKVTEELAAATAQVSHLQLKMTAHQKKETELQMQLTESLKETDLLRGQLTKVQAKLSELQETSEQAQSKFKSEKQNRKQLELKVTSLEEELTDLRVEKESLEKNLSERKKKSAQERSQAEEEIDEIRKSYQEELDKLRQLLKKTRVSTDQAAAEQLSLVQAELQTQWEAKCEHLLASAKDEHLQQYQEVCAQRDAYQQKLVQLQEKCLALQAQITALTKQNEQHIKELEKNKSQMSGVEAAASDPSEKVKKIMNQVFQSLRREFELEESYNGRTILGTIMNTIKMVTLQLLNQQEQEKEESSSEEEEEKAEERPRRPSQEQSASASSGQPQAPLNRERPESPMVPSEQVVEEAVPLPPQALTTSQDGHRRKGDSEAEALSEIKDGSLPPELSCIPSHRVLGPPTSIPPEPLGPVSMDSECEESLAASPMAAKPDNPSGKVCVREVAPDGPLQESSTRLSLTSDPEEGDPLALGPESPGEPQPPQLKKDDVTSSTGPHKELSSTEAGSTVAGAALRPSHHSQRSSLSGDEEDELFKGATLKALRPKAQPEEEDEDEVSMKGRPPPTPLFGDDDDDDDIDWLG
binding [1]: binds | binding (CCDC22 (human) [2]): binds

B5: TFDP2 (protein, UniProt Q14188 1-446)
chain: MTAKNVGLTSTNAEVRGFIDQNLSPTKGNISFVAFPVSNTNSPTKILPKTLGPINVNVGPQMIISTPQRLTSSGSVLIGSPYTPAPAMVTQTHIAEATGWVPGDRKRARKFIDSDFSESKRSKKGDKNGKGLRHFSMKVCEKVQRKGTTSYNEVADELVSEFTNSNNHLAADSAYDQKNIRRRVYDALNVLMAMNIISKEKKEIKWIGLPTNSAQECQNLEIEKQRRIERIKQKRAQLQELLLQQIAFKNLVQRNRQNEQQNQGPPALNSTIQLPFIIINTSRKTVIDCSISSDKFEYLFNFDNTFEIHDDIEVLKRMGMSFGLESGKCSLEDLKLAKSLVPKALEGYITDISTGPSWLNQGLLLNSTQSVSNLDLTTGATLPQSSVNQGLCLDAEVALATGQFLAPNSHQSSSAASHCSESRGETPCSFNDEDEEDDEEDSSSPE
binding (COMMD1 (human)): binds

B6: membrane-bound NF-kB regulator TRIM13 (protein, UniProt O60858 1-407)
chain: MELLEEDLTCPICCSLFDDPRVLPCSHNFCKKCLEGILEGSVRNSLWRPAPFKCPTCRKETSATGINSLQVNYSLKGIVEKYNKIKISPKMPVCKGHLGQPLNIFCLTDMQLICGICATRGEHTKHVFCSIEDAYAQERDAFESLFQSFETWRRGDALSRLDTLETSKRKSLQLLTKDSDKVKEFFEKLQHTLDQKKNEILSDFETMKLAVMQAYDPEINKLNTILQEQRMAFNIAEAFKDVSEPIVFLQQMQEFREKIKVIKETPLPPSNLPASPLMKNFDTSQWEDIKLVDVDKLSLPQDTGTFISKIPWSFYKLFLLILLLGLVIVFGPTMFLEWSLFDDLATWKGCLSNFSSYLTKTADFIEQSVFYWEQVTDGFFIFNERFKNFTLVVLNNVAEFVCKYKLL
binding (COMMD10 (human)): binds

B7: TTLL5 (protein, UniProt Q6EMB2 1-1281)
chain: MPIVMARDLEETASSSEDEEVISQEDHPCIMWTGGCRRIPVLVFHADAILTKDNNIRVIGERYHLSYKIVRTDSRLVRSILTAHGFHEVHPSSTDYNLMWTGSHLKPFLLRTLSEAQKVNHFPRSYELTRKDRLYKNIIRMQHTHGFKAFHILPQTFLLPAEYAEFCNSYSKDRGPWIVKPVASSRGRGVYLINNPNQISLEENILVSRYINNPLLIDDFKFDVRLYVLVTSYDPLVIYLYEEGLARFATVRYDQGAKNIRNQFMHLTNYSVNKKSGDYVSCDDPEVEDYGNKWSMSAMLRYLKQEGRDTTALMAHVEDLIIKTIISAELAIATACKTFVPHRSSCFELYGFDVLIDSTLKPWLLEVNLSPSLACDAPLDLKIKASMISDMFTVVGFVCQDPAQRASTRPIYPTFESSRRNPFQKPQRCRPLSASDAEMKNLVGSAREKGPGKLGGSVLGLSMEEIKVLRRVKEENDRRGGFIRIFPTSETWEIYGSYLEHKTSMNYMLATRLFQDRMTADGAPELKIESLNSKAKLHAALYERKLLSLEVRKRRRRSSRLRAMRPKYPVITQPAEMNVKTETESEEEEEVALDNEDEEQEASQEESAGFLRENQAKYTPSLTALVENTPKENSMKVREWNNKGGHCCKLETQELEPKFNLMQILQDNGNLSKMQARIAFSAYLQHVQIRLMKDSGGQTFSASWAAKEDEQMELVVRFLKRASNNLQHSLRMVLPSRRLALLERRRILAHQLGDFIIVYNKETEQMAEKKSKKKVEEEEEDGVNMENFQEFIRQASEAELEEVLTFYTQKNKSASVFLGTHSKISKNNNNYSDSGAKGDHPETIMEEVKIKPPKQQQTTEIHSDKLSRFTTSAEKEAKLVYSNSSSGPTATLQKIPNTHLSSVTTSDLSPGPCHHSSLSQIPSAIPSMPHQPTILLNTVSASASPCLHPGAQNIPSPTGLPRCRSGSHTIGPFSSFQSAAHIYSQKLSRPSSAKAGSCYLNKHHSGIAKTQKEGEDASLYSKRYNQSMVTAELQRLAEKQAARQYSPSSHINLLTQQVTNLNLATGIINRSSASAPPTLRPIISPSGPTWSTQSDPQAPENHSSSPGSRSLQTGGFAWEGEVENNVYSQATGVVPQHKYHPTAGSYQLQFALQQLEQQKLQSRQLLDQSRARHQAIFGSQTLPNSNLWTMNNGAGCRISSATASGQKPTTLPQKVVPPPSSCASLVPKPPPNHEQVLRRATSQKASKGSSAEGQLNGLQSSLNPAAFVPITSSTDPAHTKI
binding (CCDC22 (human) [2]): binds

B8: HAUS1 (protein, UniProt Q96CS2 1-278)
chain: MEPQEERETQVAAWLKKIFGDHPIPQYEVNPRTTEILHHLSERNRVRDRDVYLVIEDLKQKASEYESEAKYLQDLLMESVNFSPANLSSTGSRYLNALVDSAVALETKDTSLASFIPAVNDLTSDLFRTKSKSEEIKIELEKLEKNLTATLVLEKCLQEDVKKAELHLSTERAKVDNRRQNMDFLKAKSEEFRFGIKAAEEQLSARGMDASLSHQSLVALSEKLARLKQQTIPLKKKLESYLDLMPNPSLAQVKIEEAKRELDSIEAELTRRVDMMEL
binding (CCDC22 (human) [3]): binds

These are yes or no findings as the source states them, for the method shown. Binding seen in cells or lysates may run through a third protein. These calls come from enrichment with a bait or labelling near it, and not all partners need be listed.
